Results published in patent publication US9993480B2, “mTOR/JAK inhibitor combination therapy” (NOVARTIS PHARMA AG, priority 2011, dated 2018).
Read-outs that look alike come from different tables or passages of the source.

Columns and labels:
[1] = system: Ba/F3 epoR JAK2 V617F cells; experiment: Clonogenic assay in agar; conditions: Mus musculus
[2] = system: Ba/F3 epoR JAK2 wild-type cells; experiment: Clonogenic assay in agar; conditions: Mus musculus, BaF3, 168 h, read-out: IC50, clonogenic assay
Ba/F3 JAK2 V617F cells = experiment: Clonogenic assay in agar; conditions: Mus musculus, BaF3, 168 h, read-out: IC50, clonogenic assay
[3] = system: Ba/F3 JAK2 wild-type cells; experiment: Clonogenic assay in agar; conditions: Mus musculus, BaF3, 168 h, read-out: IC50, clonogenic assay
[4] = system: BaF/3-EPOR cells expressing JAK2V617F; experiment: Proliferation inhibition assay (WST-1); type: cell-based, murine; conditions: read-out: IC50, proliferation inhibition
From the text: (§1) The HEL, SET2 and K562 human cell lines were purchased from the German Collection of Microorganisms and Cell Cultures (DSMZ, Braunschweig, Germany). Murine BaF/3 and BaF/3-EPOR cells expressing JAK2 wild-type (wt) or JAK2V617F were donated by R. Skoda (Basel, Switzerland).

[5] = system: BaF/3 cells expressing JAK2 wild-type; experiment: Proliferation inhibition assay (WST-1); type: cell-based, murine; conditions: Mus musculus, BaF3, read-out: IC50, proliferation inhibition
From the text: as §1

[6] = system: BaF/3 cells expressing JAK2V617F; experiment: Proliferation inhibition assay (WST-1); type: cell-based, murine
From the text: as §1

CC(C)n1nc(-c2cc3cc(O)ccc3[nH]2)c2c(N)ncnc21 [PP242, 2-(4-amino-1-isopropyl-1H-pyrazolo[3,4-d]pyrimidin-3-yl)-1H-indol-5-ol]
IC50 ([1]; BaF3, 168 h, read-out: IC50, clonogenic assay): 0.047 ± 0.012 µM
IC50 ([1]; BaF3, read-out: IC50 of the mTOR inhibitor in drug combination with Cmp A): 0.0063 µM
IC50 [2]: 0.308 ± 0.1 µM
IC50 (Ba/F3 JAK2 V617F cells): 0.018 ± 0.007 µM
IC50 [3]: 0.1 ± 0.01 µM
IC50 ([4]; Mus musculus): 0.5 µM
IC50 [4]: 0.75 µM
IC50 [5]: 3.4 µM
IC50 ([6]; Mus musculus, BaF3, read-out: IC50, proliferation inhibition): 0.8 µM
IC50 ([6]; read-out: IC50, proliferation inhibition): 1.6 µM
